# Data published in article PMC7862700.
# By UniProt entry, the sequences of proteins in these tests, tags left out. Where a name states a change or a piece, a line headed by the entry shows the natural chain unless it says otherwise.
# UniProt Q00613: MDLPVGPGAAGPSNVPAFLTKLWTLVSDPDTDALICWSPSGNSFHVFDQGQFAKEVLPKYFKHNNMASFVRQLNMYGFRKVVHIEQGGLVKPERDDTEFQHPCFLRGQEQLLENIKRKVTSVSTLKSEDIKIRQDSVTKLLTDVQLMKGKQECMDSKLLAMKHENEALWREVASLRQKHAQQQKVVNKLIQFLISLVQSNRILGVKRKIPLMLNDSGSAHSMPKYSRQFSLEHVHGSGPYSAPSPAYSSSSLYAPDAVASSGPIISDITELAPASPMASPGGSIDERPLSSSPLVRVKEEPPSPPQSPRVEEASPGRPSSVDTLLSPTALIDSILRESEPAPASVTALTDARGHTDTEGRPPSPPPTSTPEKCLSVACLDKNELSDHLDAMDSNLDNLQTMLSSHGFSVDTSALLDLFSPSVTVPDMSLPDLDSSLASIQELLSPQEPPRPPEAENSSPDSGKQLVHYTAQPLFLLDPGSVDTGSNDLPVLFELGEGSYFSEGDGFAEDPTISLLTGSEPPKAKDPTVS
# The list shows a part of the results, in another mix than the full data. For part of these data: At the low end of the ranking the order means little. This is one part of the list. For part of these data: The exact form of the protein is not confirmed.
# Assays:
# HSF1 = HSF1 (UniProt Q00613); experiment: DAPPL (digital affinity profiling via proximity ligation, sequencing); settings: 10 mM Tris-HCl pH 7.5, 50 mM NaCl, 1 mM DTT, 4% glycerol, room temperature, 30 min; GST-TFs on glutathione beads, 16-mer random dsDNA library, 0.1% …; high values mean tight binding; double strand, one strand shown; scale: fold enrichment (6-mer frequency, TF over GST control)
# ELF2 = molecular target: T1, ELF2 (UniProt Q15723); experiment: as above; settings: 10 mM Tris-HCl pH 7.5, 50 mM NaCl, 1 mM DTT, 4% glycerol, room temperature, 30 min; GST-TFs on glutathione beads, 16-mer random dsDNA library, 0.1% …; high values mean tight binding; double strand, one strand shown; scale: fold enrichment (6-mer frequency, TF over GST control)
# T1 sequence: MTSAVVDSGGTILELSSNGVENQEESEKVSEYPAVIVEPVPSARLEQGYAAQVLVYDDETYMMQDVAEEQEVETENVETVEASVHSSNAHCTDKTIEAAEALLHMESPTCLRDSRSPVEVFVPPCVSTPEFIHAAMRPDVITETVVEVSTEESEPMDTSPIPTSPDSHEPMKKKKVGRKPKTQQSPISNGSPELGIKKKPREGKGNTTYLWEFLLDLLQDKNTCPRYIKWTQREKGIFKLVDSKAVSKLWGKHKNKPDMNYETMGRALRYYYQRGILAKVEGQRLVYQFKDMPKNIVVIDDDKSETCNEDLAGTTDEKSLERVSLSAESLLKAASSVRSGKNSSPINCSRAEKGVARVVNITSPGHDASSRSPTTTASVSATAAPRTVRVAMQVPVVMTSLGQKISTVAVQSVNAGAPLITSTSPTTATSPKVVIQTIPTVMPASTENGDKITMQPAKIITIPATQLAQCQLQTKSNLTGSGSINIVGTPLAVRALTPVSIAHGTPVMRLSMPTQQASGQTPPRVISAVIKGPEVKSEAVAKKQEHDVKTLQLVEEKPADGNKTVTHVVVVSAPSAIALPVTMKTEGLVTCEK
Sequence,binding signal (HSF1),binding signal (ELF2)
GTGCAA,0.764,0.955
GAGACC,0.133,0.202
GAGTAA,0.629,0.539
TGTGAA,0.729,0.818
GGGGCA,0.517,0.655
GGTAGT,0.528,0.815
GGGGTG,0.504,0.599
GTACGT,0.73,0.855
GTACCG,0.546,0.814
GCACCG,0.556,0.729
AACGTG,0.339,0.362
GGGAAG,0.672,0.984
ACGGAC,0.621,0.844
GACAAC,0.713,0.911
GAGCGT,0.337,0.348
CAAGAG,0.759,0.7
GTGTGA,0.451,0.544
CAGAGA,0.819,0.579
AGCGTT,0.903,0.927
GAGACT,0.441,0.379
GGCCGA,0.675,0.679
AGTCTA,0.891,0.72
AGGGGC,0.635,0.726

Sequence,binding signal (HSF1),binding signal (ELF2)
GATCGC,0.835,0.869
TGAGCC,0.806,0.771
GTGTAT,0.773,0.95
GCAGGG,0.525,0.599
GAGGGG,0.438,0.473
GTGTCA,0.624,0.825
GCCATA,0.844,0.867
GTAGAG,0.533,0.558
CGTGGC,0.727,0.864
CAAGTG,0.655,0.715
TCGCAG,0.831,0.875
GGACCA,0.658,0.726
ACGTGT,0.561,0.61
GGAGAT,0.377,0.312
GGAGGG,0.266,0.299
CATAGG,0.667,0.748
TTGGAG,0.554,0.499
AAGACA,0.908,0.98
GACAGA,0.698,0.62
CCAGGC,0.413,0.414
CTAGTC,0.957,0.696
ACGAGA,1.14,0.64
GCTGTG,0.549,0.637

# An excerpt of these results, bar-delimited:
Sequence | binding signal (HSF1) | binding signal (ELF2)
TTGGAG | 0.554 | 0.499
AAGACA | 0.908 | 0.98
GACAGA | 0.698 | 0.62
CCAGGC | 0.413 | 0.414
CTAGTC | 0.957 | 0.696

# (further entries)

Sequence,binding signal (HSF1),binding signal (ELF2)
ACTAGT,0.965,0.865
CAGTCA,0.431,0.483
GGTGCA,0.651,0.869
AAGAGC,0.865,0.874
ACAGAG,0.678,0.722
CGGTCA,0.607,0.773
GCGGAG,0.239,0.249
GTGATC,0.758,0.786
GAGATT,1.25,0.715
GCCAGG,0.373,0.468
GGCGAG,0.464,0.498
ATCCAG,1.53,0.878
CGTGAT,0.487,0.454
GCAGCG,0.651,0.777
GGTCGG,0.199,0.264
CTGGGA,0.92,0.769
AGAGCG,0.418,0.458
CACAGG,0.683,0.876
GGGAAC,0.702,0.653
TCAGGA,0.844,0.988
AGGTGG,0.565,0.593
GGCGCT,0.609,0.684
GAGCAA,0.748,0.725

Sequence,binding signal (HSF1),binding signal (ELF2)
CACAGT,0.626,0.705
AGTTGA,0.677,0.794
AGTAGG,0.567,0.724
TAGGAG,0.438,0.377
CAGGGT,0.739,0.79
GGCACA,0.62,0.786
GTCAAC,0.658,0.874
CGCGTG,0.562,0.631
CGTCAG,0.677,0.834
GGAGCT,0.577,0.556
CGTGTC,0.6,0.762
GTAACG,0.697,0.926
CGTGGG,0.316,0.359
ATGTGA,0.56,0.637
GAACGT,0.58,0.387
TGGAGT,0.488,0.506
CGTGGT,0.47,0.575
GGACGG,0.407,0.489
GCGCGA,0.804,0.696
ACGAGT,0.717,0.707
TGAGGA,0.591,0.71
GCATCG,0.718,0.765
GTCATC,0.684,0.848

Sequence,binding signal (HSF1),binding signal (ELF2)
ACGCAT,0.656,0.76
AAGTGA,0.542,0.715
AGACAA,0.79,0.791
GGGCCA,0.554,0.641
TACAGT,0.801,0.824
GACGAG,0.57,0.505
AGGGGA,0.567,0.594
TCAGGC,0.693,0.71
GGCCAC,0.702,0.922
CGGAGT,0.267,0.317
TCAGTG,0.746,0.718
GCGCAA,0.788,0.834
GGGACG,0.377,0.471
TCGGTC,0.484,0.531
GCGCCA,0.612,0.74
CCAGGA,0.519,0.866
GAGAGG,0.478,0.462
GAGGGC,0.503,0.577
GTGTGG,0.513,0.609
GGTCGT,0.475,0.581
ACAGTA,0.798,0.874
AGGCGA,0.515,0.498
